Test results published in publication PMC4741457, “Structural basis for the indispensable role of a unique zinc finger motif in LNX2 ubiquitination” (Oncotarget, 2015).
Results are given in words; binding and its absence hold for the method and conditions named.

Target: Zn-RING-Zn domain of LNX2 (aa 20-147) Lys109Ala (human) (UniProt Q8N448)
Assay: SEC; calibrated gel-filtration column (Superdex 75 or Superdex 200), each protein run alone; both purified

binding: no binding
B1: Zn-RING-Zn domain of LNX2 (aa 20-147) Lys109Ala (domain or fragment, UniProt Q8N448 20-147)
chain: NPLCFECGQQHWTRENHLYNYQNEVDDDLVCHICLQPLLQPLDTPCGHTFCYKCLRNFLQEKDFCPLDRKRLHFKLCKKSSILVHKLLDALLVLCPFSSVCKDVMQRCDLEAHLKNRCPGASHRRVAL
